Some of the results follow.
compound: O=C1NC(=O)C(c2cnc3ccccn23)=C1c1cn2c3c(cc(F)cc13)CN(C(=O)N1CCCCC1)CC2; test: log2 fold change, soluble protein after heating vs DMSO (PISA); higher = thermal stabilisation; K562 lysate, 10 uM; active = over 0.2 and 3.5 SD of the protein, either way, in both replicates (recomputed)
Method in brief: (§1)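 Following dounce homogenisation of K562 pellets in PBS pH 7.4 with 1 mM MgCl2, crude extract at 1 mg/mL protein was incubated for 30 min with 10 μM compound. Aliquots were then heated for 3 min over 48°C-58°C and pooled, NP-40 was added to 0.5% at 4°C, and soluble protein was recovered as the supernatant at 21,000xg for 90 min. Channel-sum-equalised TMTpro 16plex LC-MS/MS quantified this protein. Each value, from duplicates, is a log-two fold change in thermal stability relative to solvent controls.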

Protein sequences, listed by entry. Tags and fused reporters are not part of them. Lines headed by an entry give the natural chain unless they say otherwise; changes in a name come on top.
UniProt Q06418: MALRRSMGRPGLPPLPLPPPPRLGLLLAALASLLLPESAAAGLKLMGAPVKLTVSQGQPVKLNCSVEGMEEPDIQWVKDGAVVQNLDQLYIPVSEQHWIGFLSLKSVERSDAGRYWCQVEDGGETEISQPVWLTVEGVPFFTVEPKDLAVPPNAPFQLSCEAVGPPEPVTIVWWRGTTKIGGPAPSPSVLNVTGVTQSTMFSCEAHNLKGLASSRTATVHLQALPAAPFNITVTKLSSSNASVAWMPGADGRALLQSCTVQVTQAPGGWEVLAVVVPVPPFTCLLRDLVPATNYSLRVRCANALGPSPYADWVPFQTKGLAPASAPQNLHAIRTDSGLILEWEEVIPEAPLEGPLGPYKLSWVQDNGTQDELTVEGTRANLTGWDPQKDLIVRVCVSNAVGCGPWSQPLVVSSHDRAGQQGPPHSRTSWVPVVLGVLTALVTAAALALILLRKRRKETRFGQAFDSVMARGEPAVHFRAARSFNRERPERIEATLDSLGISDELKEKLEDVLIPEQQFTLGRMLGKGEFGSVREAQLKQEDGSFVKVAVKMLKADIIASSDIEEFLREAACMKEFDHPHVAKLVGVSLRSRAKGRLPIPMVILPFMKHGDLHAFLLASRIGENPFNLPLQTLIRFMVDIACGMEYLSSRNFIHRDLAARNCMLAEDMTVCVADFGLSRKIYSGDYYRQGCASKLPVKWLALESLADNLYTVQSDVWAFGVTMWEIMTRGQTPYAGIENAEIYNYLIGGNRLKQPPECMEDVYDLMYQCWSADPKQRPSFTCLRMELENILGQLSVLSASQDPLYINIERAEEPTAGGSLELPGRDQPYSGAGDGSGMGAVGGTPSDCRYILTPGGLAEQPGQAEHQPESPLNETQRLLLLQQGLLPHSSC
UniProt Q96RT8, whole entry, looked up: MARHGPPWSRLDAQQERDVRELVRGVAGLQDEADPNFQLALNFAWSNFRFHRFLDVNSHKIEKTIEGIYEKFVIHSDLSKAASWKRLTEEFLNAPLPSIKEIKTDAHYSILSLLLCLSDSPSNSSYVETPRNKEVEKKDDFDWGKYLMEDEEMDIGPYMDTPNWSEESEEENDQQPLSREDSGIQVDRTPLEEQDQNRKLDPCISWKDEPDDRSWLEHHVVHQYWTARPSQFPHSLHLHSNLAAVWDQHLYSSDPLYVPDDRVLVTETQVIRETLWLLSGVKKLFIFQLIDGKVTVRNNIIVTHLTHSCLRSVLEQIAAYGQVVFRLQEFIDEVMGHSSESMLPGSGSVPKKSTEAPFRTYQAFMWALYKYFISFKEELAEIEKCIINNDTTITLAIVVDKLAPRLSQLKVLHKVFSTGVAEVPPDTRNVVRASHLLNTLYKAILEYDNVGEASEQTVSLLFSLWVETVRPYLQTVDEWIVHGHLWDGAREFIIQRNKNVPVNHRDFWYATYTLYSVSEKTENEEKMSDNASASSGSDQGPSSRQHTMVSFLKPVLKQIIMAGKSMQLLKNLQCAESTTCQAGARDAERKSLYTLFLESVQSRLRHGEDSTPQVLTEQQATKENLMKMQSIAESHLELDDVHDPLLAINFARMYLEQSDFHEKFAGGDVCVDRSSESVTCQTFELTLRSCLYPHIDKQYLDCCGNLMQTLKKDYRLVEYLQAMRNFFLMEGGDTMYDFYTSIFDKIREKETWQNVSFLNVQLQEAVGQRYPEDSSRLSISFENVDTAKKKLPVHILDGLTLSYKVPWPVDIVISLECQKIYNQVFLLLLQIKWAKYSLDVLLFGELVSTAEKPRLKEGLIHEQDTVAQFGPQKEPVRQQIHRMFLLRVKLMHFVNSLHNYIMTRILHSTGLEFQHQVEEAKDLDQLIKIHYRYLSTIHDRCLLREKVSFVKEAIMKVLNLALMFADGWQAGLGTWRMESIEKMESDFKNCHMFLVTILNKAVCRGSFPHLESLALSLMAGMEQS
UniProt Q96ET8: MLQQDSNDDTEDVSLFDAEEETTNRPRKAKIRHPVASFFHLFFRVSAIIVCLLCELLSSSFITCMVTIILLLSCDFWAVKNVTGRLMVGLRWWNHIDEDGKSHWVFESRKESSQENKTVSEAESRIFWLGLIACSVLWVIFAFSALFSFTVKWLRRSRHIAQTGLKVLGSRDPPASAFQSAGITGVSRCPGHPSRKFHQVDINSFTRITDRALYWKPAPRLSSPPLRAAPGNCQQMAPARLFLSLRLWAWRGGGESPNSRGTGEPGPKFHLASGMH
UniProt P29597: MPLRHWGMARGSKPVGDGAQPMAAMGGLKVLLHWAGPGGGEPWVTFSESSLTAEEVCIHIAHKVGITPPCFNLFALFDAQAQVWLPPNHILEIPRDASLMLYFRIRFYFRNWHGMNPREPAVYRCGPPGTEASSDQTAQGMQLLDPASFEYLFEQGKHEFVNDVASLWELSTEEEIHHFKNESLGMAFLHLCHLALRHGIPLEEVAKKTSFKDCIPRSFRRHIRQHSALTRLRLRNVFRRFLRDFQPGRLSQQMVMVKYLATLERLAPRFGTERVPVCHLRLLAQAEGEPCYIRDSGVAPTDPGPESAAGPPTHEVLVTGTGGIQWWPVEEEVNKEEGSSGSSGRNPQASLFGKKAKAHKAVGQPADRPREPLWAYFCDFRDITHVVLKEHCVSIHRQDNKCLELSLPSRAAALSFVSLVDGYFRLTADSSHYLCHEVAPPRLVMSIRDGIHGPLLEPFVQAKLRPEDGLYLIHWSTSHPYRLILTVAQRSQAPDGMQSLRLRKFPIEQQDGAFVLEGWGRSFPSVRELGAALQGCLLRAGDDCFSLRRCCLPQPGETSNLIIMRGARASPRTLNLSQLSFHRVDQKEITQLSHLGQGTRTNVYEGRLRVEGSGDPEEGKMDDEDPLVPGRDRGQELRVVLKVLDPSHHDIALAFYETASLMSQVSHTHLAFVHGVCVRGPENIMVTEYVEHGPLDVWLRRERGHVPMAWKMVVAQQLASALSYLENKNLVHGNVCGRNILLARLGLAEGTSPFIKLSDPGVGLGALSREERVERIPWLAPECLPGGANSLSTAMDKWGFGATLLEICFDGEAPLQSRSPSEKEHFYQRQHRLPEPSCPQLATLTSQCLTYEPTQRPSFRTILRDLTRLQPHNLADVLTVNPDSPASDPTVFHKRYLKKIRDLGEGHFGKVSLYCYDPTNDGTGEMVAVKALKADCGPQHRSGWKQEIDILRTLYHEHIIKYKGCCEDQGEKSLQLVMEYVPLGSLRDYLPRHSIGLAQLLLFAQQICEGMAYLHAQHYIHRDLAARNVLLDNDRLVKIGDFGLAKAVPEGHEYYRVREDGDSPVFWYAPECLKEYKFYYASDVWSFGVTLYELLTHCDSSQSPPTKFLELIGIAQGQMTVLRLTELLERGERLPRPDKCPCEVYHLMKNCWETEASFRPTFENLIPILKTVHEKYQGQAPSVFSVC
UniProt P09936: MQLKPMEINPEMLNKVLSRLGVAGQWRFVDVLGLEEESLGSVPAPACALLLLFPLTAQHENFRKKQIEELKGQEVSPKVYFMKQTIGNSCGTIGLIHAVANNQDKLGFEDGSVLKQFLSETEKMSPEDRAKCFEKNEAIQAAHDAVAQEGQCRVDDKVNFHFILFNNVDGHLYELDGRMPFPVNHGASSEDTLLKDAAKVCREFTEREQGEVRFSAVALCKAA
UniProt Q14CS0: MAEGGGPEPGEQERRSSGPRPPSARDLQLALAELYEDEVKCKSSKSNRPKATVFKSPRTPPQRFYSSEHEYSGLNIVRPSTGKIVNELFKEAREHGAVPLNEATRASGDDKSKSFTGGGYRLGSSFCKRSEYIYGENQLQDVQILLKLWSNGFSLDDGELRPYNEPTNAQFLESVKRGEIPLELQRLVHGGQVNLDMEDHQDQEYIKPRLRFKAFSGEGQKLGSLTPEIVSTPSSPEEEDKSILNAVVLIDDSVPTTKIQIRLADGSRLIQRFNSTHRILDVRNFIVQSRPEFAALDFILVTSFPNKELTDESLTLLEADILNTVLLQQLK
UniProt O75896: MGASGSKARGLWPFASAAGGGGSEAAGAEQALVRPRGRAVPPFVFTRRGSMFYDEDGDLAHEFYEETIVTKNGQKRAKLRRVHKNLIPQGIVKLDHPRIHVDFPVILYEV
UniProt Q86VQ6, whole entry, looked up: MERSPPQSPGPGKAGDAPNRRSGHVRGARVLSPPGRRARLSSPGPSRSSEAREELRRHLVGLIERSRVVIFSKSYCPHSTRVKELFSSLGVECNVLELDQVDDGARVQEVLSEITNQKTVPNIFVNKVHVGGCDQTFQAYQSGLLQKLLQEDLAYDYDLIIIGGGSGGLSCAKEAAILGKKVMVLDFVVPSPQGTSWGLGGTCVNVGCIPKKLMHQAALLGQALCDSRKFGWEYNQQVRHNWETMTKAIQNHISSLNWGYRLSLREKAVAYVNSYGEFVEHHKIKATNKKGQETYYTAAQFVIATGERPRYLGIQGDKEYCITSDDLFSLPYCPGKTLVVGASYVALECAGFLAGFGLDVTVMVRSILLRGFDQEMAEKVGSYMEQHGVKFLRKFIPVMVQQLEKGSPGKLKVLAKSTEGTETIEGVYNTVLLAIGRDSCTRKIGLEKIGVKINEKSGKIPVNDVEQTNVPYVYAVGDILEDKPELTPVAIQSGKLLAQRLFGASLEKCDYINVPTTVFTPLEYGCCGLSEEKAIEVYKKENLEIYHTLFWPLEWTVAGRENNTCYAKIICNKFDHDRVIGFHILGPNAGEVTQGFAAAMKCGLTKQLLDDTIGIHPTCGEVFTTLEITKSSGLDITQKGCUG
UniProt Q9BVA1, whole entry, looked up: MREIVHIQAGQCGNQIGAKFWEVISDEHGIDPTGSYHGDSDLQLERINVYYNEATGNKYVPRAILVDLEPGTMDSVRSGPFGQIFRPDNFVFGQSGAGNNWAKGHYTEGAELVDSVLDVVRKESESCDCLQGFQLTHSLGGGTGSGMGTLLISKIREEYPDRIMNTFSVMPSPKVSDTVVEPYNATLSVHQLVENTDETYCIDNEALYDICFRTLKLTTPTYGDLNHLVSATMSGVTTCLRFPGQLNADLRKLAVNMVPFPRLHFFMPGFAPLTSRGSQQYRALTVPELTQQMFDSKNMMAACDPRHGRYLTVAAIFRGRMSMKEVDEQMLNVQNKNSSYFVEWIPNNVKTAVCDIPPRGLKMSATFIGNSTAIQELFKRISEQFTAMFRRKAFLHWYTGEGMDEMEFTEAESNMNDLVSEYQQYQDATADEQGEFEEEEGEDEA
UniProt Q9NNX1: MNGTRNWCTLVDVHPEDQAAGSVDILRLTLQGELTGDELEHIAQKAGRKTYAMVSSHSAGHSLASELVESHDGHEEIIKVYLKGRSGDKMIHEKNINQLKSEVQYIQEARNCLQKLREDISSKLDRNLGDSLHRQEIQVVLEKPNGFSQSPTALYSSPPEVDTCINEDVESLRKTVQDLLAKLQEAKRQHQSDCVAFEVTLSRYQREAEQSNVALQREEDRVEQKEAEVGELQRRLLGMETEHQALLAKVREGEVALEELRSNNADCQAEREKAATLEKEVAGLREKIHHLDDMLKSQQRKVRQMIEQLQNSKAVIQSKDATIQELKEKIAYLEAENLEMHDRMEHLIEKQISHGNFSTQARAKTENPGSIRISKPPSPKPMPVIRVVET
UniProt O15042: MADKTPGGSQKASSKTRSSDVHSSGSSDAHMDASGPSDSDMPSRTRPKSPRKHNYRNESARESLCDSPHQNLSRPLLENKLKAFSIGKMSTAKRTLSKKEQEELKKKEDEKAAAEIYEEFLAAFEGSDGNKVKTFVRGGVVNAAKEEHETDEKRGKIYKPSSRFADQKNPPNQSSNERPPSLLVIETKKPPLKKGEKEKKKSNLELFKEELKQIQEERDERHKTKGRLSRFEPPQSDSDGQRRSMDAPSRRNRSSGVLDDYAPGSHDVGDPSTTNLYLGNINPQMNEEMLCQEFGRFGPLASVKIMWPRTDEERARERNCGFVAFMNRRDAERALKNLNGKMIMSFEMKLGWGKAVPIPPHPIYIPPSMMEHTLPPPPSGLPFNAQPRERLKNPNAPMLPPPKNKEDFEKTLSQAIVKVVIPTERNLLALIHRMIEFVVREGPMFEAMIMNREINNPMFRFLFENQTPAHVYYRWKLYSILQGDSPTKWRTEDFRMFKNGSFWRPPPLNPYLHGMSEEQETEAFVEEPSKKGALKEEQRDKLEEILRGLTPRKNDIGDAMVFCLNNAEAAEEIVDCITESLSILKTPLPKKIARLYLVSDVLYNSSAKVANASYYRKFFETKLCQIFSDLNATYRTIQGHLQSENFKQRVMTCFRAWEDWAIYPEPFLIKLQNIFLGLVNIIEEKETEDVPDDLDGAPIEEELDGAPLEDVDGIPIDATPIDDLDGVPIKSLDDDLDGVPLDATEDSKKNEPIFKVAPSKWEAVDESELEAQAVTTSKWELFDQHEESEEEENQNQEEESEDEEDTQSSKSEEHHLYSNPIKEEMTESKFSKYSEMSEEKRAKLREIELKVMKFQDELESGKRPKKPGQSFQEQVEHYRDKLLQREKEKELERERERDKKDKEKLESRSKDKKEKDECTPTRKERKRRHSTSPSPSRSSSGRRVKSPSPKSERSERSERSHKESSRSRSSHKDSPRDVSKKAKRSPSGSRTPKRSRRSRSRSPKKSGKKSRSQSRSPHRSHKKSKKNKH

log2 fold change, inactive:
UBA7 (UniProt P41226) 0.06
UBA2 (UniProt U3KQ93) 0.158
TYRO3 (UniProt Q06418) -0.016
UBE2I (UniProt H3BQQ9) 0.071
TUBGCP5 (UniProt Q96RT8) 0.042
UBA52 (UniProt P62987) 0.02
TXNDC2 (UniProt Q86VQ3) -0.037
TYW5 (UniProt A2RUC4) -0.024
TXNDC11 (UniProt Q6PKC3) 0.018
TVP23C (UniProt Q96ET8) -0.083
UBAP2L isoform 1 (UniProt Q14157) 0.088
TUBB4A (UniProt P04350) 0.095
UBAP2, A0A0D9SFI5 -0.094
UBXN8 (UniProt O00124) -0.084
TYK2 (UniProt P29597) -0.027
UBN1 (UniProt Q9NPG3) -0.463
UBAP2L (UniProt F8W726) 0.021

compound: c1cn2cc(-c3ccc4cn[nH]c4c3)nc(Nc3ccc(N4CCOCC4)cc3)c2n1 [entospletinib]; test: as above
Method in brief: as §1

log2 fold change, inactive:
UCHL1 (UniProt P09936) -0.872
UBXN2B (UniProt Q14CS0) -0.032
TUBA8 (UniProt Q9NY65) -0.012
UBA2 (UniProt U3KQ93) 0.055
TYRO3 (UniProt Q06418) -0.042
TUBGCP5 (UniProt Q96RT8) -0.105
UBA52 (UniProt P62987) 0.083
TUSC2 (UniProt O75896) 0.227
TXNRD1 isoform 7 (UniProt Q16881) -0.078
TYW5 (UniProt A2RUC4) -0.188
TXNDC11 (UniProt Q6PKC3) -0.042
TXNRD3 (UniProt Q86VQ6) -0.027
TUBB4A (UniProt P04350) -0.056
TUBB2B (UniProt Q9BVA1) 0.021
UBXN8 (UniProt O00124) -0.176
TYK2 (UniProt P29597) -0.137
TUBB8B (UniProt A6NNZ2) 0.026
UBN1 (UniProt Q9NPG3) -0.034
TUFT1 (UniProt Q9NNX1) 0.024
U2AF1L5 (UniProt P0DN76) 0.016
U2AF2 (UniProt K7ELP8) 0.072
U2SURP isoform 2 (UniProt O15042) -0.147

From the supplement of paper PMC10849652
